Laboratory results reported in US7455959B2, “Photographic element containing a speed-enhancing compound” (Eastman Kodak Company, priority 2003, dated 2008).

Legend:
[1] = Photographic speed of multilayer colour negative film coatings, stepped neutral exposure, C-41 process; conditions: test compound at 0.0806 mmol/m^2 in Part A of Layer 9 (fast magenta layer), dispersed in N,N-dibutyllauramide, difference in speed versus check
Method: (§1) Surfactants, coating aids, emulsion addenda (including 4-hydroxy-6-methyl-1,3,3a,7-tetra-azaindene), sequestrants, thickeners, lubricants, matte and tinting dyes were added to the appropriate layers as is common in the art. Formulae for the identified compounds are provided at the end of these examples.
Layer 2 (Slow cyan layer): a blend of two red-sensitized (all with a mixture of RSD-1 and RSD-2) tabular silver iodobromide emulsions: (i) 0.81×0.11 μm, 4.5 mol % I at 0.400, (ii) 0.62×0.111 μm, 4.1 mol % iodide at 0.175; cyan dye-forming couplers C-1 at 0.248 and C-2 at 0.236; bleach-accelerator releasing coupler B-1 at 0.086; image-modifier DIR-1 at 0.032; O×DS-1 at 0.010 and gelatin at 1.08. Layer 3 (Mid cyan layer): a red-sensitized (with a mixture of RSD-1 and RSD-2) iodobromide tabular emulsion (1.44×0.13 μm, 3.7 mol % I) at 0.572; C-1 at 0.265; C-2 at 0.103; B-1 at 0.011; DIR-2 at 0.043; masking coupler MC-1 at 0.022 and gelatin at 1.08. Layer 4 (Fast cyan layer): a red-sensitized (with a mixture of RSD-1, RSD-2 and RSD-3) iodobromide tabular emulsion (2.41×0.13 μm, 3.7 mol % I) at 1.286; C-1 at 0.163; DIR-2 at 0.0.054; B-1 at 0.008 and gelatin at 1.08. Layer 5 (Ultra-fast cyan layer): a red-sensitized (with a mixture of RSD-1, RSD-2 and RSD-3) iodobromide tabular emulsion (3.87×0.13 μm, 3.7 mol % I) at 1.180; C-2 at 0.175; DIR-3 at 0.060; DIR-4 at 0.001 and gelatin at 1.08. Layer 6 (Interlayer): ILS-1 at 0.075 and gelatin at 1.08. Layer 7 (Slow magenta layer): a blend of two green-sensitized (both with a mixture of GSD-1 and GSD-2) silver iodobromide tabular emulsions: (i) 1.17×0.12 μm, 4.5 mol % iodide at 0.156 and (ii) 0.62×0.111 μm, 2.6 mol % iodide at 0.573; magenta dye-forming coupler M−1 at 0.300; MC-2 at 0.090, DIR-5 at 0.032, ILS-1 at 0.011 and gelatin at 1.400. Layer 8 (Mid magenta layer): a blend of two green-sensitized (both with a mixture of GSD-1 and GSD-2) silver iodobromide tabular emulsions: (i) 2.46×0.13 μm, 3.7 mol % iodide at 0.534 and (ii) 1.45×0.13 μm, 3.7 mol % iodide at 0.370; M-1 at 0.089; MC-2 at 0.086; DIR-5 at 0.025, ILS-1 at 0.012 and gelatin at 1.438. Layer 9 (Fast magenta layer): two parts mixed together at a 1:1 ratio just prior to coating; Part A (dispersion melt): M-1 at 0.104; DIR-5 at 0.011; ILS-1 at 0.014 and gelatin at 0.420 and Part B (emulsion melt): a green-sensitized (with a mixture of GSD-1 and GSD-2) silver iodobromide tabular emulsion (2.90×0.13 μm, 3.7 mol % iodide) at 1.240; MC-2 at 0.021; DIR-6 at 0.003 and gelatin at 1.076. Layer 10 (Interlayer): ILS-1 at 0.182 and gelatin at 0.700. Layer 11 (Slow yellow layer): a blend of three blue-sensitized (all with BSD-1 and BSD-2) tabular silver iodobromide emulsions (i) 2.41×0.1 μm, 2.0 mol % I at 0.402, (ii) 1.02×0.137 μm, 2.0 mol % I at 0.136, (iii) 0.62×0.111 μm, 2.6 mol % I at 0.505; yellow dye-forming coupler Y-1 at 0.850; DIR-1 at 0.022; DIR-7 at 0.038; B-1 at 0.009 and gelatin at 1.90. Layer 12 (Fast yellow layer): a blue-sensitized (with BSD-1 and BSD-2) tabular silver iodobromide emulsion, 3.72×0.131 μm, 3.7 mol % I at 0.070 and a blue-sensitized (with BSD-1) 3-D silver iodobromide emulsion, 1.21 μm diameter), 9.7 mol % I at 1.055; Y-1 at 0.312; DIR-7 at 0.065; B-1 at 0.011, stabiliser S-1 at 0.008 and gelatin at 1.280. Layer 13 (UV Filter Layer): silver bromide Lippman emulsion at 0.215; UV-1 and UV-2 both at 0.108 and gelatin at 0.700. […]

[2] = Granularity of the green layer in a neutral exposure by the RMS method; conditions: Table 2, 48 micrometer aperture, density 1.2 log exposure units from the speed point, check = 21
Method: as §1
Layer 2 (Slow cyan layer): a blend of two red-sensitized (all with a mixture of RSD-1 and RSD-2) tabular silver iodobromide emulsions: (i) 0.81×0.11 μm, 4.5 mol % I at 0.400, (ii) 0.62×0.111 μm, 4.1 mol % iodide at 0.175; cyan dye-forming couplers C-1 at 0.248 and C-2 at 0.236; bleach-accelerator releasing coupler B-1 at 0.086; image-modifier DIR-1 at 0.032; O×DS-1 at 0.010 and gelatin at 1.08. Layer 3 (Mid cyan layer): a red-sensitized (with a mixture of RSD-1 and RSD-2) iodobromide tabular emulsion (1.44×0.13 μm, 3.7 mol % I) at 0.572; C-1 at 0.265; C-2 at 0.103; B-1 at 0.011; DIR-2 at 0.043; masking coupler MC-1 at 0.022 and gelatin at 1.08. Layer 4 (Fast cyan layer): a red-sensitized (with a mixture of RSD-1, RSD-2 and RSD-3) iodobromide tabular emulsion (2.41×0.13 μm, 3.7 mol % I) at 1.286; C-1 at 0.163; DIR-2 at 0.0.054; B-1 at 0.008 and gelatin at 1.08. Layer 5 (Ultra-fast cyan layer): a red-sensitized (with a mixture of RSD-1, RSD-2 and RSD-3) iodobromide tabular emulsion (3.87×0.13 μm, 3.7 mol % I) at 1.180; C-2 at 0.175; DIR-3 at 0.060; DIR-4 at 0.001 and gelatin at 1.08. Layer 6 (Interlayer): ILS-1 at 0.075 and gelatin at 1.08. Layer 7 (Slow magenta layer): a blend of two green-sensitized (both with a mixture of GSD-1 and GSD-2) silver iodobromide tabular emulsions: (i) 1.17×0.12 μm, 4.5 mol % iodide at 0.156 and (ii) 0.62×0.111 μm, 2.6 mol % iodide at 0.573; magenta dye-forming coupler M−1 at 0.300; MC-2 at 0.090, DIR-5 at 0.032, ILS-1 at 0.011 and gelatin at 1.400. […]

Compound | Δ Speed ([1]; Table 1) [stops] | Δ Speed ([1]; Table 1, listed as CCl) | Granularity × 10^3 [2] | Δ Speed ([1]; Table 2) [stops]
CCC(Oc1ccc(C(C)(C)CC)cc1C(C)(C)CC)C(=O)Nc1ccc2[nH]cnc2c1 (centres unmarked) [CC1, reference compound] | −0.23 | shows a speed loss | – | –
CCCCCCCCCCCCn1cnc(-c2ccccc2)c1-c1ccccc1 [CC2, reference compound] | – | – | 19 | –
CCCCCCCCCCCCCCCc1cccc(OC(CC)C(=O)Nc2ncc[nH]2)c1 (centres unmarked) [SGA1] | 0.07 | – | – | –
CCC(C)(C)c1ccc(OCC(=O)Nc2nc(C#N)c(C#N)[nH]2)c(C(C)(C)CC)c1 [SGA2] | – | – | 19 | 0.13
c1ccc(-c2nc(-c3ccco3)[nH]c2-c2ccccc2)cc1 [SGA21] | – | – | 19 | 0.07
